The values below are quoted from earlier work in patent US10307371B2 (AI Therapeutics, Inc., priority 2014, dated 2019).

For this data set the following is noted: benzyl alcohol, chloroform, acetone, and acetonitrile; cited from earlier work.

With `CO[C@H]1C[C@@H]2CC[C@@H](C)[C@@](O)(O2)C(=O)C(=O)N2CCCC[C@H]2C(=O)O[C@H]([C@H](C)C[C@@H]2CC[C@@H](O)[C@H](OC)C2)CC(=O)[C@H](C)/C=C(\C)[C@@H](O)[C@@H](OC)C(=O)[C@H](C)C[C@H](C)/C=C/C=C/C=C/1C` [Rapamycin, (3S,6R,7E,9R,10R,12R,14S,15E,17E,19E,21S,23S,26R,27R,34aS)-9,10,12,13, -14,21,22,23,24,25,26,27,32,33,34,34a-hexadecahydro-9,27-dihydroxy-3-[(1R)-2-[(1S,3R,4R)-4-hydroxy-3-methoxycyclohexyl]-1-methylethyl]-10,21-dimethox-y-6,8,12,14,20,26-hexamethyl-23,27-epoxy-3H-pyrido[2,1-c][1,4]oxaazacyclohentriacontine-1,5,11,28,29(4H,6H,31H)-pentone], the “Solubility in organic solvents” value is listed as “freely soluble”.
